In the supplement of paper PMC10849652:
Some of the results follow.

The chains behind the UniProt entries cited, without tags or fusion partners. Where a name states a change or a piece, a line headed by the entry shows the natural chain unless it says otherwise.
UniProt Q9BV29: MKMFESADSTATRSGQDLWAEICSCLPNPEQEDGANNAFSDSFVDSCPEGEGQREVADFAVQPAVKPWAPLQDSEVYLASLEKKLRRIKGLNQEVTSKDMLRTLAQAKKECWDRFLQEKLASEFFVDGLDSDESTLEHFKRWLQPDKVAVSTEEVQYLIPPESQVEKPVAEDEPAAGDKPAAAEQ
UniProt Q9BSQ5: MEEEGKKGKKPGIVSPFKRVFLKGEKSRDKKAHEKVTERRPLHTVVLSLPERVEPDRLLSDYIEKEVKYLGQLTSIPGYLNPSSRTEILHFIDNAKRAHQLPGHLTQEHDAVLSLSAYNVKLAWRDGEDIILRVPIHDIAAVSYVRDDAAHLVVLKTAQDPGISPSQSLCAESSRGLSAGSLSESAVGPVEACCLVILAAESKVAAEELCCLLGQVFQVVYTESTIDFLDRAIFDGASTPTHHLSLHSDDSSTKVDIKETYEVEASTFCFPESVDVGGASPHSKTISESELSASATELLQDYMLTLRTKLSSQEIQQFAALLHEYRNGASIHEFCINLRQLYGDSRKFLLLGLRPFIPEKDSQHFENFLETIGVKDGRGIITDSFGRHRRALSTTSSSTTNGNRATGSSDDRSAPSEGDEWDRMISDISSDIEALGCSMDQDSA
UniProt O15446, whole entry, looked up: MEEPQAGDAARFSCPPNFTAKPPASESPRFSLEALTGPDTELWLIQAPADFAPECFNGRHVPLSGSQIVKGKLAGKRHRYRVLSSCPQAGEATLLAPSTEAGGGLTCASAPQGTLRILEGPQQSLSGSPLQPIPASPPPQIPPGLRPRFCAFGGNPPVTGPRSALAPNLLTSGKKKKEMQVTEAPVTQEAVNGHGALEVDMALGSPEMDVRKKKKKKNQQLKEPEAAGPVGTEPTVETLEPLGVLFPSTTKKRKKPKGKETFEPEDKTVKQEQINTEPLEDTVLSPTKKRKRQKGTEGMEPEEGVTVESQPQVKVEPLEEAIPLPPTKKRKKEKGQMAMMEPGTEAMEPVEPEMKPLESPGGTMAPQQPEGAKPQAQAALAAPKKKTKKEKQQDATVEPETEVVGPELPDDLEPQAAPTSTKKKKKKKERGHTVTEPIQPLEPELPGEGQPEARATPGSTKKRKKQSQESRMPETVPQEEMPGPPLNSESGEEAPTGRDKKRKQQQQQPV
UniProt Q6PII3: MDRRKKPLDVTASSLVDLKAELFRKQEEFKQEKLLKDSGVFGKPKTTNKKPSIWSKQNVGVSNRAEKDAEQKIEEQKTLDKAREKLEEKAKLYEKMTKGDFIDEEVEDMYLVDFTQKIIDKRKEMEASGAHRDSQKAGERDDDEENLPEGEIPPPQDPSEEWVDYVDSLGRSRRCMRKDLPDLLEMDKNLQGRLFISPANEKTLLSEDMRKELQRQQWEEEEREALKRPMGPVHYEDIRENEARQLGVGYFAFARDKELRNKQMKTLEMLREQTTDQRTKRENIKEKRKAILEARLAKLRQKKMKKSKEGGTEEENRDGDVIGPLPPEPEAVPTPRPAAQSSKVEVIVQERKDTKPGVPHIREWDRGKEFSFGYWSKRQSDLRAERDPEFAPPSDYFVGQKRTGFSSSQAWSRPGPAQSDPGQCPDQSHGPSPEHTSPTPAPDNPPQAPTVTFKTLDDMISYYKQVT
UniProt P48509: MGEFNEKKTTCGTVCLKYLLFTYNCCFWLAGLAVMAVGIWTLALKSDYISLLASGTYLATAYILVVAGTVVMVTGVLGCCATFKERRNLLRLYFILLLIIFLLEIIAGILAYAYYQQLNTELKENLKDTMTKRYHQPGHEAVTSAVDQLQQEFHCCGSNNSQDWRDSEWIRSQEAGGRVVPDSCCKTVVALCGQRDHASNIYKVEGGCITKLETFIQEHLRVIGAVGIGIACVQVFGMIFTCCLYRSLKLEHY
UniProt Q9P031: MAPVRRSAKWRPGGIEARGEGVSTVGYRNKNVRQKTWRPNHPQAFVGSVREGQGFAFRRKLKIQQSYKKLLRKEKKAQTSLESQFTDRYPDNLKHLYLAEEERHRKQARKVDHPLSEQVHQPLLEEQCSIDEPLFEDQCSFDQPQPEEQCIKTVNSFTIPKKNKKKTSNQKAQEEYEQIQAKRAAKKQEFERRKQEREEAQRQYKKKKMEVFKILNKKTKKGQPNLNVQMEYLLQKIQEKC
UniProt A6NKD9: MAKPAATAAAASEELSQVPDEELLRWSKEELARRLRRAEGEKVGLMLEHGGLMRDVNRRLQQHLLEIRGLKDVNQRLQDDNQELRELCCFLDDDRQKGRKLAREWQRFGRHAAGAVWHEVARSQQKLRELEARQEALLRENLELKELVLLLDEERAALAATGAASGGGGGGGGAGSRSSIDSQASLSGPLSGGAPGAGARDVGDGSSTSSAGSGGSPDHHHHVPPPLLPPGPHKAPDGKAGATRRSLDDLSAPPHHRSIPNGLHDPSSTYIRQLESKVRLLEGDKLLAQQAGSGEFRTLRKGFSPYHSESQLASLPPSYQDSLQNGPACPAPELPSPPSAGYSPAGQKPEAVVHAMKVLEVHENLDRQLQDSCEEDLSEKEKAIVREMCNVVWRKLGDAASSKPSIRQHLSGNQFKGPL
UniProt Q96A19: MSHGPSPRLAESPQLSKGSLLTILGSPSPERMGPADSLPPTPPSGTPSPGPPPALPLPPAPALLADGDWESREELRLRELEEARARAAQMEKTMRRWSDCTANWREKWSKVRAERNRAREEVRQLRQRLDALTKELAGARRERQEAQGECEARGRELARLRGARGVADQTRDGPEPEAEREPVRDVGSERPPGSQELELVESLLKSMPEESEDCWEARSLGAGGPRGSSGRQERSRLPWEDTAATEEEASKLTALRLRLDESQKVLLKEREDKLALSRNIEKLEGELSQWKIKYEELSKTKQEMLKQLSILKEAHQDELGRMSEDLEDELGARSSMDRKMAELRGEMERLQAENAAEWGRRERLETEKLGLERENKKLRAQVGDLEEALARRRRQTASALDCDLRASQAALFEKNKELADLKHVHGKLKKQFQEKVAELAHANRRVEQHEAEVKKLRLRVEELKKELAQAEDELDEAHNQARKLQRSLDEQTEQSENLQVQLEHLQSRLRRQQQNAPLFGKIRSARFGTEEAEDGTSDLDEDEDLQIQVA
UniProt Q8TD31: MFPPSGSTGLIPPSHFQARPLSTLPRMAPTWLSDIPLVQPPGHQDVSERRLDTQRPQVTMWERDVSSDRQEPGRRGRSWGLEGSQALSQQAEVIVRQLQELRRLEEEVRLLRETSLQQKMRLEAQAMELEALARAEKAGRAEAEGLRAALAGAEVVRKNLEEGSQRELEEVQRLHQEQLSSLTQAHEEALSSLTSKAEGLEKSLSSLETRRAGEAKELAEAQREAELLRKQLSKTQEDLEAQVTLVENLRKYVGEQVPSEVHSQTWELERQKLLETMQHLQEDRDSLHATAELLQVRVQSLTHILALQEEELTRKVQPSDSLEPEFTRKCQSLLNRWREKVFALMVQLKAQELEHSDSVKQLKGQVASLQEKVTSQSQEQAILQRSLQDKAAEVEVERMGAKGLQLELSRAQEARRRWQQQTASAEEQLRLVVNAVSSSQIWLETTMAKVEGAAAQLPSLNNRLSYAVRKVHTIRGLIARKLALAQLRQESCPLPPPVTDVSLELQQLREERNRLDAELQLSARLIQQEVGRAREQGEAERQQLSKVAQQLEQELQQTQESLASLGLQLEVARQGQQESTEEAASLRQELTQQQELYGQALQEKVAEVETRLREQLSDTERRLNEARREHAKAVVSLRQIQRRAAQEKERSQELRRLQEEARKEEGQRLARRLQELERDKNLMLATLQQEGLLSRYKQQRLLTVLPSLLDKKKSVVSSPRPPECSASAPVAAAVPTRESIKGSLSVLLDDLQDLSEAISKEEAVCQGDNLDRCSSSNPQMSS
UniProt A2RUR9: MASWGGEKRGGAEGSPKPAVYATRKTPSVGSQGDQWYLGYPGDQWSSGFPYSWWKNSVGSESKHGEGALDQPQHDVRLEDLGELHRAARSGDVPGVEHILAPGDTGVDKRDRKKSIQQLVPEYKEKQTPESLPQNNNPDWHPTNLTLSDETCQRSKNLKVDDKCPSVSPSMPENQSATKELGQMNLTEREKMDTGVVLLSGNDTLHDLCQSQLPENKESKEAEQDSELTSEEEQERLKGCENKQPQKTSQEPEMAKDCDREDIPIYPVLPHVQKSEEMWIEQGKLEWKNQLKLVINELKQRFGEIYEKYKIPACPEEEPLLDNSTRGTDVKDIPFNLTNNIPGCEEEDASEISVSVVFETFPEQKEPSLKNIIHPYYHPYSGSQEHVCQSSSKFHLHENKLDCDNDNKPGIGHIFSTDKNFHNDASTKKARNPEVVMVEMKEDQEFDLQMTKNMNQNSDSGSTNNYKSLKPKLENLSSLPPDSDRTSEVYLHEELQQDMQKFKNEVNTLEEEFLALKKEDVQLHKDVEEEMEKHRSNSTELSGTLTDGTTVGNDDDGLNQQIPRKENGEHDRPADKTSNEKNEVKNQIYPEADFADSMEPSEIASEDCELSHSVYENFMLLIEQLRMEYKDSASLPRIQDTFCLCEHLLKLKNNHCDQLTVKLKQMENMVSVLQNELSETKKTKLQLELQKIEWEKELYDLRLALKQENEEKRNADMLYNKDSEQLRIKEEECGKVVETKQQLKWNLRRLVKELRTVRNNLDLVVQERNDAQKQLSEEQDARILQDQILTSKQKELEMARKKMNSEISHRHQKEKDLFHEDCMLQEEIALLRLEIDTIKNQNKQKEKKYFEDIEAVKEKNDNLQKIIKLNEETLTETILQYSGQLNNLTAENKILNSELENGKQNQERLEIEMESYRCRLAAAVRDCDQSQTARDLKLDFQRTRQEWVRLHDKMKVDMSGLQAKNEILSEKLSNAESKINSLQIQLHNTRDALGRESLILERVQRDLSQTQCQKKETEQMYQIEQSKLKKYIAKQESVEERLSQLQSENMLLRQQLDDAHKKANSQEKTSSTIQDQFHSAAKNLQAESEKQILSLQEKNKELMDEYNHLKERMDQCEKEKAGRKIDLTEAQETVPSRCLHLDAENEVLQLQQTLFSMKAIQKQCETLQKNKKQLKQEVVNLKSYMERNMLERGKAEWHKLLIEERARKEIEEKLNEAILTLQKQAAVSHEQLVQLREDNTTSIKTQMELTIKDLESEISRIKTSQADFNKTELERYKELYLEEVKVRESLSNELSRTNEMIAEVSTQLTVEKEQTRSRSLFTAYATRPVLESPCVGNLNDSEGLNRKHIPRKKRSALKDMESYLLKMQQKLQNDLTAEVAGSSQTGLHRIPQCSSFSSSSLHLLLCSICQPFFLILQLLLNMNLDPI
UniProt Q92526, whole entry, looked up: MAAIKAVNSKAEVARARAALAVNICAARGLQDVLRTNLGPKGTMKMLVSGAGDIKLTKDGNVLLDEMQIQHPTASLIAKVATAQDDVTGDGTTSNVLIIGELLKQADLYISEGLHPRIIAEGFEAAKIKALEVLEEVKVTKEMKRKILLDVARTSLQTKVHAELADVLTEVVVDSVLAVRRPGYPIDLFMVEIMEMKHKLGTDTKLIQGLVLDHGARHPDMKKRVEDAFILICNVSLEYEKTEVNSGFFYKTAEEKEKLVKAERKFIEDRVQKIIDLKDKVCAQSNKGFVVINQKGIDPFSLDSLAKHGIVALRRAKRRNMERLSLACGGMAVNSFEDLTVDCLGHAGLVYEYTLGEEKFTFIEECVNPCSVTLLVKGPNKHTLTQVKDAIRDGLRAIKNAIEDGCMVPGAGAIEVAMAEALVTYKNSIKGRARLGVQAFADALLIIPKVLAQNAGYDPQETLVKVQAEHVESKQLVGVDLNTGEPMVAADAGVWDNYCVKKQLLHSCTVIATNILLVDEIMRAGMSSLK
UniProt Q15834: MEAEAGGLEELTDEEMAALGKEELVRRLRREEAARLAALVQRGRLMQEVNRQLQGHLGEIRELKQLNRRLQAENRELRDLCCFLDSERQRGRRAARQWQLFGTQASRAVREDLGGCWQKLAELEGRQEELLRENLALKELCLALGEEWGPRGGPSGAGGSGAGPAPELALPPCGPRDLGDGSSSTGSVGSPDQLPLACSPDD
UniProt Q4G0S7: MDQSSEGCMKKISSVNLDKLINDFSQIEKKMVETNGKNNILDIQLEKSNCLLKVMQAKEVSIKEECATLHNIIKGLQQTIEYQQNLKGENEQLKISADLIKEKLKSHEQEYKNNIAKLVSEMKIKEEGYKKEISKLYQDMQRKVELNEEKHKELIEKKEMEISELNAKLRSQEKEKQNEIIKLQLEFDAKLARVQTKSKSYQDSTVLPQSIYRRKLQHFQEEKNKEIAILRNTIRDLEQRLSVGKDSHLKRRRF
UniProt P24863: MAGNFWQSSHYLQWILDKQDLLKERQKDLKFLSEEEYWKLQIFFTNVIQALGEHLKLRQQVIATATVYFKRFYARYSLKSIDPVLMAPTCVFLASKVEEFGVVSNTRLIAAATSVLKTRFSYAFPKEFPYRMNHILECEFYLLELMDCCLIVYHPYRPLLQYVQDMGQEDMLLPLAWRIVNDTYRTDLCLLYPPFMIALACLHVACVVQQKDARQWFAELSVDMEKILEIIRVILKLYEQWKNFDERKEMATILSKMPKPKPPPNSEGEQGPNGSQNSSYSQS

Tests used:
Assay in all cases: log2 fold change, soluble protein after heating vs DMSO (PISA); higher = thermal stabilisation; K562 lysate, 10 uM; active = over 0.2 and 3.5 SD of the protein, either way, in both replicates (recomputed)
[1] = compound: CCCS(=O)(=O)Nc1ccc(F)c(C(=O)c2c[nH]c3ncc(-c4ccc(Cl)cc4)cc23)c1F [vemurafenib]
Outline: (§1)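 Following dounce homogenisation of K562 pellets in PBS pH 7.4 with 1 mM MgCl2, crude extract at 1 mg/mL protein was incubated for 30 min with 10 μM compound. Aliquots were then heated for 3 min over 48°C-58°C and pooled, NP-40 was added to 0.5% at 4°C, and soluble protein was recovered as the supernatant at 21,000xg for 90 min. Channel-sum-equalised TMTpro 16plex LC-MS/MS quantified this protein. Each value, from duplicates, is a log-two fold change in thermal stability relative to solvent controls.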

[2] = compound: CCCS(=O)(=O)Nc1ccc(F)c(C(=O)c2c[nH]c3ncc(Cl)cc23)c1F
Outline: as §1

[3] = compound: CCN(CCCOc1ccc2c(Nc3cc(CC(=O)Nc4cccc(F)c4)[nH]n3)ncnc2c1)CCOP(=O)(O)O [barasertib]
Outline: as §1

[4] = compound: CC[C@@H]1C(=O)N(C)c2cnc(Nc3ccc(C(=O)NC4CCN(C)CC4)cc3OC)nc2N1C1CCCC1
Outline: as §1

[5] = compound: CC[C@@H]1C(=O)N(C)c2cnc(Nc3ccc(C(=O)N[C@H]4CC[C@H](N5CCN(CC6CC6)CC5)CC4)cc3OC)nc2N1C(C)C [volasertib]
Outline: as §1

[6] = compound: CCn1c(C(=O)N(C2CC2)C2CC2)cc2c3c(ncn3C)c(Nc3cc(C)n(C)n3)nc21
Outline: as §1

[7] = compound: CCn1cc(-c2ccnc3[nH]c(-c4cccc(CN(C)C)c4)cc23)c(-c2ccc(NC(=O)N(C)C)cc2)n1
Outline: as §1

[8] = compound: CN1CCC(CNc2ccc3ncc(-c4cccc(OC(F)(F)F)c4)n3n2)CC1
Outline: as §1

[9] = compound: CN1CCN(CCOc2cc(OC3CCOCC3)c3c(Nc4c(Cl)ccc5c4OCO5)ncnc3c2)CC1 [saracatinib]
Outline: as §1

[10] = compound: CN1CCN(c2nc(C3=C(c4c[nH]c5ccccc45)C(=O)NC3=O)c3ccccc3n2)CC1 [sotrastaurin]
Outline: as §1

Measured: log2 fold change

CCDC32 isoform 2 (UniProt Q9BV29)
inactive: [1] 0.007 | [2] 0 | [3] 0.351 | [4] -0.041 | [5] 0.021 | [6] -0.061 | [7] -0.246 | [8] 0.065 | [9] 0.021 | [10] -0.012

CCM2 isoform 2 (UniProt Q9BSQ5)
inactive: [1] -0.043 | [2] 0.048 | [3] -0.012 | [4] 0.039 | [5] -0.029 | [6] 0.002 | [7] -0.052 | [8] -0.023 | [9] -0.011 | [10] 0.085

CD3EAP isoform 2 (UniProt O15446)
inactive: [1] 0.012 | [2] 0.016 | [3] -0.022 | [4] 0.056 | [5] -0.006 | [6] -0.055 | [7] -0.109 | [8] 0.007 | [9] 0.009 | [10] -0.009

CCDC43 (UniProt Q96MW1)
inactive: [1] 0.033 | [2] 0.023 | [3] -0.105 | [4] -0.028 | [5] 0.021 | [6] 0.049 | [7] -0.024 | [8] 0.058 | [9] 0.009 | [10] 0.012

Pulled one by one from the entries so far, two records:
CD3EAP isoform 2 (UniProt O15446)
inactive: [1] 0.012 | [2] 0.016 | [3] -0.022 | [4] 0.056 | [5] -0.006 | [6] -0.055 | [7] -0.109 | [8] 0.007 | [9] 0.009 | [10] -0.009

CCDC32 isoform 2 (UniProt Q9BV29)
inactive: [1] 0.007 | [2] 0 | [3] 0.351 | [4] -0.041 | [5] 0.021 | [6] -0.061 | [7] -0.246 | [8] 0.065 | [9] 0.021 | [10] -0.012

Next part.

CCDC174 (UniProt Q6PII3)
inactive: [1] -0.015 | [2] 0.026 | [3] -0.005 | [4] 0.065 | [5] 0.021 | [6] 0.024 | [7] 0.036 | [8] 0.01 | [9] 0.001 | [10] -0.019

CD151 (UniProt P48509)
inactive: [1] -0.01 | [2] 0.024 | [3] 0.038 | [4] 0.037 | [5] 0.015 | [6] -0.005 | [7] -0.211 | [8] 0.05 | [9] 0.063 | [10] 0.169

CCDC59 (UniProt Q9P031)
inactive: [1] -0.04 | [2] 0.114 | [3] 0.014 | [4] -0.04 | [5] -0.021 | [7] 0.079 | [8] -0.013 | [9] -0.012 | [10] -0.061

CARD9 (UniProt Q9H257)
inactive: [1] 0.03 | [2] 0.026 | [3] 0.008 | [4] 0.068 | [5] -0.001 | [6] 0.011 | [7] -0.036 | [8] 0.013 | [9] 0.014 | [10] -0.01

CCDC85C (UniProt A6NKD9)
inactive: [1] -0.039 | [2] -0.025 | [3] 0.008 | [4] -0.054 | [5] -0.004 | [7] -0.108 | [8] 0.072 | [9] 0.012 | [10] 0.014

CCND2 (UniProt P30279)
inactive: [2] 0.069 | [3] -0.175 | [5] -0.032 | [6] 0.088 | [9] 0.051 | [10] 0.066

CBLL1 (UniProt Q75N03)
inactive: [1] 0.014 | [2] 0.054 | [4] 0.05 | [5] -0.041 | [6] -0.006 | [7] 0.076 | [8] 0.086 | [9] 0.084 | [10] -0.084

CCDC102A (UniProt Q96A19)
inactive: [1] -0.184 | [3] 0.108 | [4] 0.079 | [10] 0.019

CBX4 (UniProt O00257)
inactive: [1] 0.019 | [2] 0.004 | [3] 0.039 | [4] 0.163 | [5] 0.016 | [6] -0.154 | [7] 0.055 | [8] -0.045 | [9] 0.01 | [10] -0.046

CCHCR1 isoform 2 (UniProt Q8TD31)
inactive: [1] -0.017 | [3] -0.017 | [4] -0.079 | [7] -0.044 | [8] 0.031 | [10] 0.008

CCDC144A (UniProt A2RUR9)
inactive: [1] 0.122 | [3] 0.04 | [4] 0.14 | [9] 0.087 | [10] 0.235

CCT6B (UniProt Q92526)
inactive: [2] 0.016 | [3] 0.131 | [5] 0.012 | [7] -0.052 | [8] 0.116

CCDC85B (UniProt Q15834)
inactive: [1] -0.317 | [2] 0.04 | [3] -0.047 | [4] 0.086 | [5] 0.345 | [6] 0.007 | [7] 0.126 | [8] -0.01 | [9] 0.163 | [10] -0.035

CD226 (UniProt Q15762)
inactive: [2] -0.052 | [3] -0.015 | [5] -0.034

CCDC152 (UniProt Q4G0S7)
inactive: [1] -0.051 | [9] 0.032 | [10] 0.12

CBFA2T2 isoform 4 (UniProt O43439)
inactive: [1] 0.106 | [2] 0.215 | [4] 0.058 | [5] -0.127 | [6] 0.039 | [7] -0.084 | [8] 0.109 | [9] 0.032 | [10] -0.032

CCDC175 (UniProt P0C221)
inactive: [1] 0.205 | [2] 0.105 | [4] 0.357 | [5] 0.006 | [7] -0.424 | [8] 0.255

CCNC (UniProt P24863)
inactive: [1] 0.22 | [2] 0.046 | [3] -0.026 | [4] -0.017 | [5] -0.079 | [6] 0.029 | [7] -0.211 | [8] 0.135 | [9] -0.001 | [10] -0.062

CCDC51 (UniProt Q96ER9)
active: [7] 0.262 | [8] -0.422
inactive: [1] 0.001 | [2] -0.008 | [3] 0.027 | [4] -0.005 | [5] 0.002 | [6] -0.009 | [9] -0.034 | [10] -0.072
